We go through 1 compound from patent US9926315B2, “Triazolopyridine compounds and methods for the treatment of cystic fibrosis” (Flatley Discovery Lab, LLC, priority 2014, dated 2018).

Protein sequences, listed by entry. Tags and fused reporters are not part of them. Chains listed by the source or under a name are the forms on record and can include a tag or linker.
UniProt P13569, with tags, fused parts or gaps DEL508-508: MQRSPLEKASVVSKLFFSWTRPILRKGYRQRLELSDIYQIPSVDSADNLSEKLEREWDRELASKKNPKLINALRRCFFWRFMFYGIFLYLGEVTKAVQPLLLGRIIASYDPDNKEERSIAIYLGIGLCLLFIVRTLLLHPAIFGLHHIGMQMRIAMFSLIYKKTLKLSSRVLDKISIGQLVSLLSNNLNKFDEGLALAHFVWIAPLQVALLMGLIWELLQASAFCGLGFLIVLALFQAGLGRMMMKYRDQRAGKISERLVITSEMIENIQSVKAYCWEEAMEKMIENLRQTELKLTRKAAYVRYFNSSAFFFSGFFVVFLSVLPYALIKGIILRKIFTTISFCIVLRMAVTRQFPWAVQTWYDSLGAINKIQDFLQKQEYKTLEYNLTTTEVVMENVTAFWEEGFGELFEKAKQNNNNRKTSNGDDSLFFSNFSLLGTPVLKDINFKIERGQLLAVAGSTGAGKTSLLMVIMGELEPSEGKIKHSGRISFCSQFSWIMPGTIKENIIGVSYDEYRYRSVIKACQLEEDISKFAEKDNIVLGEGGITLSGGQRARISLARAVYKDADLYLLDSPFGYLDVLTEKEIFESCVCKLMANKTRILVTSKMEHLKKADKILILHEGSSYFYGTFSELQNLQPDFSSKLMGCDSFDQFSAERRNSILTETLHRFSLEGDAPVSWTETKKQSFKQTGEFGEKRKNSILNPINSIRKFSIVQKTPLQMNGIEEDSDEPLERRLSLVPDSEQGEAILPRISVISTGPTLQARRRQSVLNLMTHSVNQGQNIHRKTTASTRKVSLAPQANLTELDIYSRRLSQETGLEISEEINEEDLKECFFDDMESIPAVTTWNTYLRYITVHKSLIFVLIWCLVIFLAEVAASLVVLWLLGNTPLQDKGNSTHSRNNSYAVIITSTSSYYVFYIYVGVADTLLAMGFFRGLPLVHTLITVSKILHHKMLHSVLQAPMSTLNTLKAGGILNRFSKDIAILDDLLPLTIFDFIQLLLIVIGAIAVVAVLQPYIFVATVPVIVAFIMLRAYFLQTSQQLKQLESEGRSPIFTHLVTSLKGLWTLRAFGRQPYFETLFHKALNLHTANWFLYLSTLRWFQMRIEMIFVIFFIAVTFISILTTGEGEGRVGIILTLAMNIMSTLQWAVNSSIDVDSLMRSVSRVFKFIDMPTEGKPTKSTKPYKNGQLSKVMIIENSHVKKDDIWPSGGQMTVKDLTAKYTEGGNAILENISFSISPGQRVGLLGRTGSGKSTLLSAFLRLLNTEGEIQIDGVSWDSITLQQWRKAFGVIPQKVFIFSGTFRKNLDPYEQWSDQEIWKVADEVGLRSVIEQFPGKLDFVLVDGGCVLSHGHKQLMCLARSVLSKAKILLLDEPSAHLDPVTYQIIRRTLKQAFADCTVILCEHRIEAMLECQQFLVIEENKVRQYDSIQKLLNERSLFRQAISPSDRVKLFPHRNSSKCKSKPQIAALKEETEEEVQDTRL

Structures are written as SMILES. The match of structure and compound is tentative.

In the assay the target is human ΔF508-CFTR (Homo sapiens, UniProt P13569, DEL508-508). Put plainly: CFTR-YFP High Throughput Assay (HTS YFP flux assay, corrector / potentiator protocols). As to conditions: FRT cells stably expressing human ΔF508-CFTR and YFP-H148Q/I152L. How it is done: Assays for Detecting and Measuring the Effect of Compounds on dF508-CFTR Channels CFRT-YFP High Throughput Assay: Corrector Assay:
The following protocol is designed to selectively screen small molecule compounds for F508del CFTR corrector activities in the HTS YFP flux assay. In this protocol, the cells are incubated with testing compounds for 24 hours, washed with PBS, stimulated with forskolin and a standard potentiator, and read on a 384-well HTS plate reader, such as the Hamamatsu FDDD-6000.
YFP fluorescence intensity is acquired at high speed before and after iodide buffer is injected to the assay cells. Iodide enters the cells via active CFTR channels in the plasma membrane, and quenches the YFP fluorescence. The rate of fluorescence quenching is proportionally related to the total CFTR activities in the cell membrane. dF508-CFTR corrector accelerates YFP quenching by increasing the number of CFTR molecules in the testing cell plasma membrane.
This method was initially developed for bench top plate readers (Galietta, 2001), and was adapted to the HTS format (Sui, 2010). […]
YFP fluorescence intensity is acquired at high speed before and after iodide buffer is injected to the assay cells. Iodide enters the cells via active CFTR channels in the plasma membrane, and quenches the YFP fluorescence. […]

A word on the EC50: it is the midpoint of the concentration-response curve. `O=S(=O)(c1ccccc1)c1ccc2nc(Nc3ccc(-c4ccccn4)cc3)nn2c1`: the EC50 was 1 to 10 µM. Besides, where the note is “normalized to positive control”, the “Emax (% Efficacy, EMax normalized to the positive control)” value is listed as “++ (“++” refers to a range of 80%-40%)”.
